Measurements as given in publication doi:10.1101/2020.11.12.379867.
These are yes or no findings as the source states them, for the method shown. Binding seen in cells or lysates may run through a third protein. A result given as binding can be weak or reduced; the word gives no strength. Where a sequence is shown, tags or fusion partners need not be part of it.

Biological target: GST-STG^9A (GST-fused C-terminus of STG mimicking the unphosphorylated form)
Assay: pull-down

- binding: binds
B1: flag-tagged μ3 subunit of the adaptor protein AP-3 (μ3A) (protein, UniProt Q9JKC8 1-418)
chain: MIHSLFLINCSGDIFLEKHWKSVVSQSVCDYFFEAQEKAADVENVPPVISTPHHYLISIYRDKLFFVSVIQTEVPPLFVIEFLHRVADTFQDYFGECSEAAIKDNVVIVYELLEEMLDNGFPLATESNILKELIKPPTILRSVVNSITGSSNVGDTLPTGQLSNIPWRRAGVKYTNNEAYFDVVEEIDAIIDKSGSTVFAEIQGVIDACIKLSGMPDLSLSFMNPRLLDDVSFHPCIRFKRWESERVLSFIPPDGNFRLISYRVSSQNLVAIPVYVKHSISFKENSSCGRFDITIGPKQNMGKTIEGITVTVHMPKVVLNMNLTPTQGSYTFDPVTKVLAWDVGKITPQKLPSLKGLVNLQSGAPKPEENPNLNIQFKIQQLAISGLKVNRLDMYGEKYKPFKGVKYVTKAGKFQVRT
